# Reference: EP0911034A1, “MEDICINAL COMPOSITIONS FOR TREATING CARDIAC DISEASES CAUSED BY CARDIAC HYPERTROPHY” (SUNTORY LIMITED, priority 1997, dated 1999)
# At least one peptide structure holds a part that was inferred or is arguable (an end, a ring closure or a residue).
# Legend:
# [1] = tested on: Rats 2 Weeks After Arteriovenous Shunt Surgery
# [2] = tested on: Rats 15 Weeks After Abdominal Aortic-Banding
# [3] = ANP group compared with the control group, 0.1 µg/kg/min for 2 weeks starting 2 weeks after shunt surgery, Fig. 2
# [4] = α-hANP 0.1 µg/kg/min continuous intravenous infusion for 2 weeks starting 2 weeks after arteriovenous shunt surgery, under anesthesia, mean ± standard error
# [5] = urine collected every 24 hours during 1 week administration, 0.1 µg/kg/min, Fig. 1, compared among sham, control and ANP groups
# [6] = α-hANP 0.1 µg/kg/min continuous intravenous infusion for 1 week starting immediately after aortic banding, mean ± standard error
# [7] = α-hANP 0.1 µg/kg/min continuous intravenous infusion for 1 week starting immediately after aortic banding, under anesthesia, mean ± standard error
# [8] = α-hANP 0.1 µg/kg/min continuous intravenous infusion for 3 weeks starting 15 weeks after aortic banding, mean ± standard error
# [9] = α-hANP 0.1 µg/kg/min continuous intravenous infusion for 3 weeks starting 15 weeks after aortic banding, under anesthesia, mean ± standard error
smiles,measurement,setting,value
CC[C@H](C)[C@@H]1NC(=O)[C@H](CCCNC(=N)N)NC(=O)[C@H](CC(=O)O)NC(=O)[C@H](CCSC)NC(=O)[C@H](CCCNC(=N)N)NC(=O)CNC(=O)CNC(=O)[C@H](Cc2ccccc2)NC(=O)[C@@H](NC(=O)[C@H](CO)NC(=O)[C@H](CO)NC(=O)[C@H](CCCNC(=N)N)NC(=O)[C@H](CCCNC(=N)N)NC(=O)[C@H](CC(C)C)NC(=O)[C@@H](N)CO)CSSC[C@@H](C(=O)N[C@@H](CC(N)=O)C(=O)N[C@@H](CO)C(=O)N[C@@H](Cc2ccccc2)C(=O)N[C@@H](CCCNC(=N)N)C(=O)N[C@@H](Cc2ccc(O)cc2)C(=O)O)NC(=O)CNC(=O)[C@H](CC(C)C)NC(=O)CNC(=O)[C@H](CO)NC(=O)[C@H](CCC(N)=O)NC(=O)[C@H](C)NC(=O)CNC1=O [ANP],ratio of left atrium weight to body weight,[1]; [3],significantly lower
same,ratio of left ventricle weight to body weight,[1]; [3],significantly lower
same,ratio of right atrium weight to body weight,[1]; [3],significantly lower
same,ratio of right ventricle weight to body weight,[1]; [3],significantly lower
same,ratio of lung weight to body weight,"[1]; indicator of pulmonary congestion, 0.1 µg/kg/min for 2 weeks starting 2 weeks after shunt surgery, Fig. 3",4.06 ± 0.25 mg/g
same,hematocrit,"[1]; indicator of pulmonary/systemic congestion, ANP group versus control group, Fig. 3",improved
same,intrinsic rat ANP concentration,"[1]; plasma, ANP group after 2 weeks infusion at 0.1 µg/kg/min, radioimmunoassay",419 ± 202 pg/mL
same,Heart rate,[1]; [4],460±14 beats/min
same,Systolic pressure,[1]; [4],143±4 mmHg
same,Right atrial pressure,"[1]; α-hANP 0.1 µg/kg/min continuous intravenous infusion for 2 weeks starting 2 weeks after arteriovenous shunt surgery, under anesthesia, mean ± standard error, unit not given",12.6±0.7
same,plasma concentration of cGMP,"Rats with Aortic-Banding; ANP group after 1 week infusion at 0.1 µg/kg/min, radioimmunoassay",5.3 ± 0.4 pmol/mL
same,intrinsic ANP concentration in plasma,"Rats with Aortic-Banding; rat ANP, ANP group after 1 week infusion at 0.1 µg/kg/min, radioimmunoassay",113 ± 10 pg/mL
same,urine sodium excretion,Rats with Aortic-Banding; [5],no significant differences
same,urine volume,Rats with Aortic-Banding; [5],no significant differences
same,Left ventricle weight/body weight,"Rats with Aortic-Banding; α-hANP 0.1 µg/kg/min continuous intravenous infusion for 1 week starting immediately after aortic banding, indicator of cardiac hypertrophy, mean ± standard error",2.09 ± 0.04 mg/g
same,Left ventricle weight,Rats with Aortic-Banding; [6],592 ± 10 mg
same,Right ventricle weight,Rats with Aortic-Banding; [6],147 ± 4 mg
same,Right ventricle weight/body weight,Rats with Aortic-Banding; [6],0.52 ± 0.02 mg/g
same,Heart rate,Rats with Aortic-Banding; [7],465±7 beats/min
same,Systolic pressure,Rats with Aortic-Banding; [7],188±8 mmHg
same,intrinsic rat ANP concentration,"[2]; plasma, ANP group after 3 weeks infusion at 0.1 µg/kg/min, radioimmunoassay",105 ± 18 pg/mL
same,Left ventricle weight/body weight,"[2]; α-hANP 0.1 µg/kg/min continuous intravenous infusion for 3 weeks starting 15 weeks after aortic banding, indicator of cardiac hypertrophy, mean ± standard error",2.11 ± 0.06 mg/g
same,Left ventricle weight,[2]; [8],1056 ± 20 mg
same,Right ventricle weight,[2]; [8],220 ± 4 mg
same,Right ventricle weight/body weight,[2]; [8],0.44 ± 0.01 mg/g
same,Heart rate,[2]; [9],451±9 beats/min
same,Systolic pressure,[2]; [9],205±8 mmHg
